The results in this text go back to the supplement of paper PMC12067093, “Discovery and optimisation of a covalent ligand for TRIM25 and its application to targeted protein ubiquitination” (Chemical Science, 2025).

Protein sequences, listed by entry. Tags and fused reporters are not part of them. Lines headed by an entry give the natural chain unless they say otherwise; changes in a name come on top.
UniProt P43243: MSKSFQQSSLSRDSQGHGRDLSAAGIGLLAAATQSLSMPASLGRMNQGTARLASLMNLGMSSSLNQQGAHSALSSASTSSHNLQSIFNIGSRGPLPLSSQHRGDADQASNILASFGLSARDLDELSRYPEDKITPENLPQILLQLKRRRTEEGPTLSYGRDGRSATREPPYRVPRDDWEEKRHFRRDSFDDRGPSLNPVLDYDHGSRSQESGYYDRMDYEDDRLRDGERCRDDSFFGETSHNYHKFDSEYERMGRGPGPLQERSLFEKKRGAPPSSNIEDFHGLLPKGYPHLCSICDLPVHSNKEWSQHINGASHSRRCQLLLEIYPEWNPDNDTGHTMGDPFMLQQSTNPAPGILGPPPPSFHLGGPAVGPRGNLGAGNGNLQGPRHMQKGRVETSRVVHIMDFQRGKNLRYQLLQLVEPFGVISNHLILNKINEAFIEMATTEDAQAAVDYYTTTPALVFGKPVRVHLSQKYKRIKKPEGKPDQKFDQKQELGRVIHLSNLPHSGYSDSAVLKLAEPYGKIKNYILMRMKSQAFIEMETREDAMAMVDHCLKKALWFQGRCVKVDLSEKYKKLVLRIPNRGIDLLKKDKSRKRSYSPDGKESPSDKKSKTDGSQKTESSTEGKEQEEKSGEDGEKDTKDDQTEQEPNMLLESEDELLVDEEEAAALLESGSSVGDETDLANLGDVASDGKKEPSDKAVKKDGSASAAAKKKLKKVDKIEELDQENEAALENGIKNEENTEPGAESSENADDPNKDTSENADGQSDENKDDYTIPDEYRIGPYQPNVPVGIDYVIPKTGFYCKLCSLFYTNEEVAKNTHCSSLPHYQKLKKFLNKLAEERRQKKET
UniProt O60449: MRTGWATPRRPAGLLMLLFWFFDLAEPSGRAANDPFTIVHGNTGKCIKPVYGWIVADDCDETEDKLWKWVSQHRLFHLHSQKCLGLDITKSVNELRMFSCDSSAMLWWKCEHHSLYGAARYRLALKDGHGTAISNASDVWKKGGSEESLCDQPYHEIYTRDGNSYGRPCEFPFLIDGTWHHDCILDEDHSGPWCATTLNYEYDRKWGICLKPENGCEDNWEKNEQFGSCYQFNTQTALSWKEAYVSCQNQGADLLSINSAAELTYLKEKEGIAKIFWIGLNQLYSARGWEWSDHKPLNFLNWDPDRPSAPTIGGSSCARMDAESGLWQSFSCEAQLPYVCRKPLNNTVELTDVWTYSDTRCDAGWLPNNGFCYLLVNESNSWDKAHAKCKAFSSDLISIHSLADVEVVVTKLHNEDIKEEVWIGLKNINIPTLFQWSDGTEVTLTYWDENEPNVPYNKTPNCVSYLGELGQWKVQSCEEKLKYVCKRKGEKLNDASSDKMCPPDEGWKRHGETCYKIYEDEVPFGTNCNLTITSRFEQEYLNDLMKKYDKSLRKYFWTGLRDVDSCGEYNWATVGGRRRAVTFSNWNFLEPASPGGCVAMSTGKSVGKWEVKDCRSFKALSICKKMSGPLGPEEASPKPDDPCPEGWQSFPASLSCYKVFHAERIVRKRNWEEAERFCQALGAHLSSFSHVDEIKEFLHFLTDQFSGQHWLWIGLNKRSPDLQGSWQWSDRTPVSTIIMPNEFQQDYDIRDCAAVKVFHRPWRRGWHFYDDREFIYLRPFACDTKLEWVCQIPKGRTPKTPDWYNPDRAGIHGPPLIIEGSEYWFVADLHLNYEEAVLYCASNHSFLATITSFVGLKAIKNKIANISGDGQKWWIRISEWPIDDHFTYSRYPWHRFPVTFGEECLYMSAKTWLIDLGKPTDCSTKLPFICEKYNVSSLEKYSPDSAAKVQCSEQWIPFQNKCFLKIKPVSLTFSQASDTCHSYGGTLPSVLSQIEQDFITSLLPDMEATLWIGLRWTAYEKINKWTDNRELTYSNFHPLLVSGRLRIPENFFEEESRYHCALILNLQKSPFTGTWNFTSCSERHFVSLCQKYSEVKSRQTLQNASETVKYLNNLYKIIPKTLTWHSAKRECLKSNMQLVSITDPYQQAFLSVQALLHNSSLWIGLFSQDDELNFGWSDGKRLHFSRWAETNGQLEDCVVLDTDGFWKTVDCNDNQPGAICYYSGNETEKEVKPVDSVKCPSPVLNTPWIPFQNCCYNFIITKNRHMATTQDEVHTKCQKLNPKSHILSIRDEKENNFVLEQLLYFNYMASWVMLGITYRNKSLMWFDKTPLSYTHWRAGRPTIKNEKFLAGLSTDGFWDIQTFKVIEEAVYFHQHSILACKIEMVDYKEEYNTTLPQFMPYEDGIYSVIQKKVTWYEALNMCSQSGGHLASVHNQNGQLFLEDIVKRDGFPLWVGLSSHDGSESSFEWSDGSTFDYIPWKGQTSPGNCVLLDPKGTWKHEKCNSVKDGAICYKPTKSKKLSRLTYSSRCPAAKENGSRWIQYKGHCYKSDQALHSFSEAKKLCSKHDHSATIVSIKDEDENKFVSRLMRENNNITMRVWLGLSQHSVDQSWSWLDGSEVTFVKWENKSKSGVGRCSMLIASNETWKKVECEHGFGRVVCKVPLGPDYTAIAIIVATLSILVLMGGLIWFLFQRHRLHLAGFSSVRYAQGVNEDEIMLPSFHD
UniProt Q15691: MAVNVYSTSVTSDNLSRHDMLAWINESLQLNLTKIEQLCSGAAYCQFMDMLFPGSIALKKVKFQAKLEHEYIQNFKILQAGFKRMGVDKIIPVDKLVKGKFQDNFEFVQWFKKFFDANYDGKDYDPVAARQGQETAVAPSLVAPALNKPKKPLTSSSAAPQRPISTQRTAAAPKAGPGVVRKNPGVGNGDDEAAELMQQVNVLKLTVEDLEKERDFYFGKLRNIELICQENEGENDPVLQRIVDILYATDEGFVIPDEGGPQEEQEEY
UniProt Q9Y250: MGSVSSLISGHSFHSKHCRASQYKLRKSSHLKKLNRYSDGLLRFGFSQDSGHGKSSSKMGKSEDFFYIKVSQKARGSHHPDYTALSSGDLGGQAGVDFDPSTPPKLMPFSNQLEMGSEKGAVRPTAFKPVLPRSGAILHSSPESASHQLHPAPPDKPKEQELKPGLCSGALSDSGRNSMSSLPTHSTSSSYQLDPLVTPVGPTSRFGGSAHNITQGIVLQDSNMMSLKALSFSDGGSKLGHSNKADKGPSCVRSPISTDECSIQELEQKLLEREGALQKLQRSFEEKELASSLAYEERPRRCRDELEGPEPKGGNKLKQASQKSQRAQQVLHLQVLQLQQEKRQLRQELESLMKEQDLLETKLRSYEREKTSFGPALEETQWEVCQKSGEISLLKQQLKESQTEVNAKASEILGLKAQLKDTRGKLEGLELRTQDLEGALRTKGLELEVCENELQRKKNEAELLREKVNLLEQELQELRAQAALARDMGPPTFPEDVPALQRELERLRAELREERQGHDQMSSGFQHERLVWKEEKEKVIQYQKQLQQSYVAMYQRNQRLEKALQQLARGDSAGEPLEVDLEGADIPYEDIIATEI
UniProt Q7L5Y9: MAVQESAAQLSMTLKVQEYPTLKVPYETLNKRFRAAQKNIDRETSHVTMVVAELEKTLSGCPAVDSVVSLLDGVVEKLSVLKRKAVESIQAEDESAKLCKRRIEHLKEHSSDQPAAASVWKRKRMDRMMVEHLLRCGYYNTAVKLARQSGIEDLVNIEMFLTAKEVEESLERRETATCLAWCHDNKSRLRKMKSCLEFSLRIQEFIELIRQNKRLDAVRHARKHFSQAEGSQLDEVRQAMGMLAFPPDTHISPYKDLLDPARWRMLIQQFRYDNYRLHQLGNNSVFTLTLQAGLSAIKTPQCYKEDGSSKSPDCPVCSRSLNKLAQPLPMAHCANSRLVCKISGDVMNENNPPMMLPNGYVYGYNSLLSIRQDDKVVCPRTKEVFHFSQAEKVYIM
UniProt O00754: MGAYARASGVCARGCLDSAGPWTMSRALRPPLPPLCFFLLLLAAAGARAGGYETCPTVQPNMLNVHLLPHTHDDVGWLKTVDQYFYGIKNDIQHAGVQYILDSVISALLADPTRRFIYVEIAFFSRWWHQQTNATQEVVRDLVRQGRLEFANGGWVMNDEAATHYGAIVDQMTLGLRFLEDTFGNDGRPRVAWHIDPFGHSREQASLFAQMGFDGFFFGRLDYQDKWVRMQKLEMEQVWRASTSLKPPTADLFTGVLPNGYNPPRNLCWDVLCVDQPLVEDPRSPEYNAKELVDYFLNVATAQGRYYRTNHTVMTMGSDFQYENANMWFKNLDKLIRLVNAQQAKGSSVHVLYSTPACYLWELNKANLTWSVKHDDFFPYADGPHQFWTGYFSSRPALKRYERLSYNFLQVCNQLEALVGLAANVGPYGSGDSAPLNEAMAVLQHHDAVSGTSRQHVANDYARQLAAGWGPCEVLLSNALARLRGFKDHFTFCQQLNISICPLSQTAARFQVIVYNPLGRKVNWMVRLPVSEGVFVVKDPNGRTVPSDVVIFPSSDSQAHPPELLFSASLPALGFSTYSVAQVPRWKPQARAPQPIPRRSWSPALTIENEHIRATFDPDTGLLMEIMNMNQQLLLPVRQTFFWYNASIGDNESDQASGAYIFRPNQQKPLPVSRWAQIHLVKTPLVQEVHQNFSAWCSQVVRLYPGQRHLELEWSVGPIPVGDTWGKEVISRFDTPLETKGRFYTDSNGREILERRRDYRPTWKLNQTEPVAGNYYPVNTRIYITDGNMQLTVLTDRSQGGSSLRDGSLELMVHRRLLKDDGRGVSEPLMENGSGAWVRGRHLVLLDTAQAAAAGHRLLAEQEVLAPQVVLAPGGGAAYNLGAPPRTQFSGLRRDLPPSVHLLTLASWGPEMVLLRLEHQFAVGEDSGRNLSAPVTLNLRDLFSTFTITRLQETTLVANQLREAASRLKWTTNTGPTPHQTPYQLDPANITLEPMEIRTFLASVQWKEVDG
UniProt O75608: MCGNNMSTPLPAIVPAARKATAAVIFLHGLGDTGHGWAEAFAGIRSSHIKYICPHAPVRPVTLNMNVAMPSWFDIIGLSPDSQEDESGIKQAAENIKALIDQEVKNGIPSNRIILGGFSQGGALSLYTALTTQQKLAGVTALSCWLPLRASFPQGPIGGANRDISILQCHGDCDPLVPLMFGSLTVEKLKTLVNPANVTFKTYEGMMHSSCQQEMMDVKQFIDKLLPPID
UniProt Q16539, whole entry, looked up: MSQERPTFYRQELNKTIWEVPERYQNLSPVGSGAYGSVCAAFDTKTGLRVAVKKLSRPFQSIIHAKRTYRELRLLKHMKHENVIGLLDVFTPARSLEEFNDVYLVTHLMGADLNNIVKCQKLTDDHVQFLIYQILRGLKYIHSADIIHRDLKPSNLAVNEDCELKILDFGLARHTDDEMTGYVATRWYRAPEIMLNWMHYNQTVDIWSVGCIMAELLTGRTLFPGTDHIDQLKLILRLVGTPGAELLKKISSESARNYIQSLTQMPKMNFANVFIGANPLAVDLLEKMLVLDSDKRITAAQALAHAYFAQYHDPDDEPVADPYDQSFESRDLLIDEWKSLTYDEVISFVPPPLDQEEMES
UniProt O95232: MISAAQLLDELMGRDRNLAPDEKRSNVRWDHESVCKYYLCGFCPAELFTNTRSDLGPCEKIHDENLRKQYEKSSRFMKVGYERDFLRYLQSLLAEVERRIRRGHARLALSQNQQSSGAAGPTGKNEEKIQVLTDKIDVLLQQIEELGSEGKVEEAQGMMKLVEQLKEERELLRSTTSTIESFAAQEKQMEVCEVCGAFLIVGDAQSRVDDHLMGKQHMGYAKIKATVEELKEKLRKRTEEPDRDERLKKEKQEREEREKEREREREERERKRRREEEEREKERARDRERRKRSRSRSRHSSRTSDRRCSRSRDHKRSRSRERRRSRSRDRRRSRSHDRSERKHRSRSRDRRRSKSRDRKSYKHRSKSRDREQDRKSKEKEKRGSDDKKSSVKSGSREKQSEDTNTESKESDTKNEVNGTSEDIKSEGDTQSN

Compound in the test: Cc1cc(ccc1-c1ccccc1)C(=O)N1CCCN(CC1)C(=O)CCl [compound 10]
Kind of test: probe-labelled cysteine peptide fold change vs DMSO (competition) (log2 fold change); higher = less target engagement (more negative = stronger competition). Conditions: THP-1, incubation time: 4 h.

This is one part of the list.
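Note: competitive profiling in live THP-1 cells: cysteine peptides tagged with an iodoacetamide desthiobiotin (IA-DTB) probe, intensity after compound treatment relative to DMSO-treated cells.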

Regarding MAGT1_Q9H0U3_90_QCVVCK (UniProt Q9H0U3), the “probe-labelled cysteine peptide fold change” value is -0.185 (10 µM) and 0.0992 (50 µM).

Take “MBTPS2_O43462_386_SSSSSFCIIPSLETHTR (UniProt O43462)”: the “probe-labelled cysteine peptide fold change” value by setting is: (10 µM) 0.093; (50 µM) 0.0827.

As to “MACF1_Q9UPN3_5309_DCDVQGLEHDMEEINAR (UniProt Q9UPN3)”, the “probe-labelled cysteine peptide fold change” value turned out to be 0.0885 (10 µM) and 0.126 (50 µM).

Turning to “MATR3_P43243_293+296_GYPHLCSICDLPVHSNK (UniProt P43243)”, the “probe-labelled cysteine peptide fold change” value amounted to 0.125 (10 µM) and 0.0146 (50 µM).

As to “MAP10_Q9P2G4_273_TNSVVTCSGAGNGR (UniProt Q9P2G4)”, the “probe-labelled cysteine peptide fold change” value is, setting by setting: (10 µM) -0.369; (50 µM) -0.505.

Turning to “MATR3_P43243_821_NTHCSSLPHYQK (UniProt P43243)”, the “probe-labelled cysteine peptide fold change” value amounted to 0.214 (10 µM) and 0.037 (50 µM).

Take “MACF1_Q9UPN3_4752_EAQTLCDELSVLIGEQYLK (UniProt Q9UPN3)”: the “probe-labelled cysteine peptide fold change” value was found to be 0.064 (10 µM) and 0.181 (50 µM).

Take “LYST_Q99698_3677_SPVTAVSASETSGDIATVCDSAGGGSDLR (UniProt Q99698)”: the “probe-labelled cysteine peptide fold change” value is, setting by setting: (10 µM) 0.206; (50 µM) 0.232.

“LY75_O60449_597_AVTFSNWNFLEPASPGGCVAMSTGK (UniProt O60449)”: the “probe-labelled cysteine peptide fold change” value by setting is: (10 µM) -0.107; (50 µM) 0.0449.

On to “MAPRE1_Q15691_228_NIELICQENEGENDPVLQR (UniProt Q15691)”, for which the “probe-labelled cysteine peptide fold change” value came to 0.196 (10 µM) and 0.425 (50 µM).

On to “LZTR1_Q8N653_667_AYLEGAGAEFCDITLLLDGHPRPAHK (UniProt Q8N653)”, for which the “probe-labelled cysteine peptide fold change” value was -0.0805 (10 µM) and 0.0304 (50 µM).

For the target “MARS_P56192_12_LFVSDGVPGCLPVLAAAGR (UniProt P56192)”, the “probe-labelled cysteine peptide fold change” value reads like this: (10 µM) -0.0423; (50 µM) 0.0818.

“MAT1A_Q00266_34_ICDQISDAVLDAHLK (UniProt Q00266)”: the “probe-labelled cysteine peptide fold change” value was -0.542 (10 µM) and -0.336 (50 µM).

For the target “MAT2B_Q9NZL9_93_FEQVNLLDSNAVHHIIHDFQPHVIVHCAAER (UniProt Q9NZL9)”, the “probe-labelled cysteine peptide fold change” value was -0.0429 (10 µM) and -0.0239 (50 µM).

For LYAR_Q9NX58_51_CISEDQK (UniProt Q9NX58), the “probe-labelled cysteine peptide fold change” value by setting is: (10 µM) 0.032; (50 µM) -0.0969.

“MAP1S_Q66K74_51_SWDVDPGVCNLDEQLK (UniProt Q66K74)”: the “probe-labelled cysteine peptide fold change” value reads like this: (10 µM) 0.00683; (50 µM) -0.0249.

With “MAP3K3_Q99759_411_EVSALECEIQLLK (UniProt Q99759)”, the “probe-labelled cysteine peptide fold change” value (10 µM) was -0.0261 and the “probe-labelled cysteine peptide fold change” value (50 µM) is -0.158.

With “MAPK8_P45983_163_SDCTLK (UniProt P45983)”, the “probe-labelled cysteine peptide fold change” value was -0.283 (10 µM) and -1.24 (50 µM).

On to “LY75_O60449_110_CEHHSLYGAAR (UniProt O60449)”, for which the “probe-labelled cysteine peptide fold change” value was determined as 0.109 (10 µM) and 0.155 (50 µM).

Turning to “MAPRE2_Q15555_279_EIELLCQEHGQENDDLVQR (UniProt Q15555)”, the “probe-labelled cysteine peptide fold change” value was -0.115 (10 µM) and -0.171 (50 µM).

As for “LY75_O60449_501_MCPPDEGWKR (UniProt O60449)”, the “probe-labelled cysteine peptide fold change” value runs as follows: (10 µM) -0.278; (50 µM) -0.29.

Take “MAT2B_Q9NZL9_58_EFQQNNWHAVGCGFR (UniProt Q9NZL9)”: the “probe-labelled cysteine peptide fold change” value is 0.0464 (10 µM) and -0.023 (50 µM).

For the target “MAN2B2_Q9Y2E5_288_TPHVLWPWGCDK (UniProt Q9Y2E5)”, the “probe-labelled cysteine peptide fold change” value by setting is: (10 µM) 0.102; (50 µM) 0.298.

Take “LYAR_Q9NX58_30_NCECLSCIDCGK (UniProt Q9NX58)”: the “probe-labelled cysteine peptide fold change” value is, setting by setting: (10 µM) 0.0738; (50 µM) 0.144.

In the case of “LZTS1_Q9Y250_450_GLELEVCENELQR (UniProt Q9Y250)”, the “probe-labelled cysteine peptide fold change” value runs as follows: (10 µM) -0.0879; (50 µM) 0.191.

“MAP4K1_Q92918_494_LFNGCPLR (UniProt Q92918)”: the “probe-labelled cysteine peptide fold change” value by setting is: (10 µM) -0.323; (50 µM) -0.17.

In the case of “MAPK9_P45984_213_ENVDIWSVGCIMGELVK (UniProt P45984)”, the “probe-labelled cysteine peptide fold change” value is, setting by setting: (10 µM) 0.102; (50 µM) 0.08.

Turning to “MAEA_Q7L5Y9_314+317_SPDCPVCSR (UniProt Q7L5Y9)”, the “probe-labelled cysteine peptide fold change” value by setting is: (10 µM) -0.155; (50 µM) -0.514.

For “MAN2B1_O00754_268+273_NLCWDVLCVDQPLVEDPR (UniProt O00754)”, the “probe-labelled cysteine peptide fold change” value reads like this: (10 µM) -0.169; (50 µM) 0.12.

“MAT2A_P31153_104_TCNVLVALEQQSPDIAQGVHLDR (UniProt P31153)”: the “probe-labelled cysteine peptide fold change” value worked out at 0.185 (10 µM) and 0.228 (50 µM).

As for “LYPLA1_O75608_173_DISILQCHGDCDPLVPLMFGSLTVEK (UniProt O75608)”, the “probe-labelled cysteine peptide fold change” value was 0.0175 (10 µM) and -0.0155 (50 µM).

For “MANF_P55145_151_ILDDWGETCK (UniProt P55145)”, the “probe-labelled cysteine peptide fold change” value by setting is: (10 µM) -0.142; (50 µM) -0.103.

As to “MAP3K2_Q9Y2U5_405_EVNALECEIQLLK (UniProt Q9Y2U5)”, the “probe-labelled cysteine peptide fold change” value reads like this: (10 µM) -0.052; (50 µM) -0.189.

For “MAPK14_Q16539_162_PSNLAVNEDCELK (UniProt Q16539)”, the “probe-labelled cysteine peptide fold change” value (10 µM) is -0.127 and the “probe-labelled cysteine peptide fold change” value (50 µM) came to 0.34.

In the case of “LUC7L3_O95232_40+43_YYLCGFCPAELFTNTR (UniProt O95232)”, the “probe-labelled cysteine peptide fold change” value was 0.232 (10 µM) and -0.733 (50 µM).

Regarding “MAP2K3_P46734_29_ISCMSKPPAPNPTPPR (UniProt P46734)”, the “probe-labelled cysteine peptide fold change” value (10 µM) is -0.299 and the “probe-labelled cysteine peptide fold change” value (50 µM) was -0.621.
